# Laboratory results: the supplement of paper PMC12259267, “Disruption of the KLHL37–N-Myc complex restores N-Myc degradation and arrests neuroblastoma growth in mouse models” (The Journal of Clinical Investigation, 2025)
# Where a name gives a salt, the structure may show the parent alone. This is one part of the list. Most values come without repeats; read them as rough. Square brackets hold non-standard residues; d marks the D form. Peptide text beside a SMILES is read from it. * marks the point of attachment. Sta = CC(C)C[C@H](N)[C@@H](O)CC(=O)O; Isovaleryl = CC(C)CC(=O)*
# System: SK-N-BE(2)
# Assay: inhibition of N-Myc immunofluorescence signal per cell relative to control (fraction); higher = stronger N-Myc protein reduction
# Conditions: 1 µM; 9 h
row,Compound,inhibition of N-Myc immunofluorescence signal per cell
1,CCCC(CCC)C(=O)O [Valproic acid (sodium salt)],0.0659
2,CC(C)(C)OC(=O)Nc1ccc(-c2cc(C(=O)NCCCCCCC(=O)NO)no2)cc1,-0.041
3,CC(C)C[C@H](NC(=O)CNC(=O)c1cc(Cl)ccc1Cl)B(O)O [Ixazomib],-0.38
4,Cc1nc(-c2cccnc2)sc1C(=O)Nc1ccccc1-c1cn2c(CN3CCOCC3)csc2n1,-0.0941
5,Cc1ncsc1-c1ccc(CNC(=O)[C@@H]2C[C@@H](O)CN2C(=O)[C@H](C(C)C)N2Cc3ccccc3C2=O)cc1,0.137
6,CC(C)CC(=O)N[C@H](C(=O)N[C@H](C(=O)N[C@@H](CC(C)C)[C@@H](O)CC(=O)N[C@@H](C)C(=O)N[C@@H](CC(C)C)[C@@H](O)CC(=O)O)C(C)C)C(C)C [Pepstatin (Trifluoroacetate)] (Isovaleryl-VV[Sta]A[Sta]-OH),0.168
7,O=C(/C=C/c1ccc(CN(CCO)CCc2c[nH]c3ccccc23)cc1)NO [Dacinostat],0.134
8,NS(=O)(=O)OC[C@@H]1C[C@@H](n2ccc3c(N[C@H]4CCc5ccccc54)ncnc32)C[C@@H]1O [Pevonedistat hydrochloride],-0.371
9,"C#CCOCC(=O)N[C@H](C(=O)N1C[C@H](O)C[C@H]1C(=O)NCc1ccc(-c2scnc2C)cc1)C(C)(C)C [(S,R,S)-AHPC-propargyl]",-0.0632
10,"Cc1ncsc1-c1ccc([C@H](C)NC(=O)[C@@H]2C[C@@H](O)CN2C(=O)[C@@H](N)C(C)(C)C)cc1 [(S,R,S)-AHPC-Me (dihydrochloride)]",-0.402
11,Cc1ccc(S(=O)(=O)Nc2cc(C(F)(F)F)ccc2C(=O)Nc2nc(-c3ccccc3)cs2)cc1,0.0848
12,Cc1ccc(S(=O)(=O)/C=C/C#N)cc1,0.202
13,O=C(CCCCCCC(=O)Nc1ccccc1)NO [Vorinostat],-0.258
14,CCCCN(Cc1ccc(C(=O)NO)cc1)C(=O)Nc1ccccc1 [Nexturastat A],0.0987
15,Cc1cc(Sc2nnnn2CCN(C)C)n2nc(SCc3ccc(Cl)cc3)nc2n1,0.214
16,CCOC(=O)NCCCC(=O)NCCc1ccccc1 [Santacruzamate A],0.177
17,O=C(Nc1ccccc1-c1cn2c(CN3CC[C@@H](O)C3)csc2n1)c1ccc2ccccc2c1,-0.0737
18,Cc1nc(C(=O)NCC(=O)O)c(O)c2ccc(Oc3ccccc3)cc12 [Roxadustat],0.0189
19,CC1(C)CC[C@]2(NC(=O)C(C)(F)F)CC[C@]3(C)[C@H](C(=O)C=C4[C@@]5(C)C=C(C#N)C(=O)C(C)(C)[C@@H]5CC[C@]43C)[C@@H]2C1 [Omaveloxolone (RTA-408)],0.736
20,COc1cc2c(cc1OC(C)C)[C@H](c1ccc(Cl)cc1)N(c1ccc(N(C)C[C@H]3CC[C@H](N4CCN(C)C(=O)C4)CC3)cc1)C(=O)C2 [NVP-CGM097 (sulfate)],0.00951
21,COc1cc(/C=C/C(=O)CC(=O)/C=C/c2ccc(O)c(OC)c2)ccc1O [Curcumin],-0.00535

# Laid out differently: entries from further up.
row	Compound	inhibition of N-Myc immunofluorescence signal per cell
17	O=C(Nc1ccccc1-c1cn2c(CN3CC[C@@H](O)C3)csc2n1)c1ccc2ccccc2c1	-0.0737
18	Cc1nc(C(=O)NCC(=O)O)c(O)c2ccc(Oc3ccccc3)cc12 [Roxadustat]	0.0189
19	CC1(C)CC[C@]2(NC(=O)C(C)(F)F)CC[C@]3(C)[C@H](C(=O)C=C4[C@@]5(C)C=C(C#N)C(=O)C(C)(C)[C@@H]5CC[C@]43C)[C@@H]2C1 [Omaveloxolone (RTA-408)]	0.736
20	COc1cc2c(cc1OC(C)C)[C@H](c1ccc(Cl)cc1)N(c1ccc(N(C)C[C@H]3CC[C@H](N4CCN(C)C(=O)C4)CC3)cc1)C(=O)C2 [NVP-CGM097 (sulfate)]	0.00951
21	COc1cc(/C=C/C(=O)CC(=O)/C=C/c2ccc(O)c(OC)c2)ccc1O [Curcumin]	-0.00535
